{"source": "patent US20210269549A1", "about": "“ANTI-SAS1B ANTIBODIES, ASSOCIATED METHODS OF USE, AND COMPOSITIONS AND METHODS FOR DETECTING AND TREATING CANCER” (UNIVERSITY OF VIRGINIA PATENT FOUNDATION, priority 2015, published 2021)", "molecules": {"B1": {"name": "SB4: mouse anti-human SAS1B monoclonal antibody, IgG2a; VH SEQ ID NO:16, VL SEQ ID NO:17 (antibody, listed as Mus musculus, V domains shown)", "VH": "EVQLQQSGPELVKPGSSVKISCKPSGYTFTDYNMVWMKQSHGKSLEWIGAINPNNGGTTYNQKFKGKATLTVDKSSSTAYMELRSLTSEDSAVYYCAPNWDWFAYWGQGTLVTVSA", "VL": "DVLMTQTPLSLPVSLGDQASISCRSSQSILHSNGNTYLEWYLQKPGQSPKLLIYKVSNRFSGVPDRFSGSGSGTDFTLKISRVEAEDLGVYYCFQGSHVPFTFGSGTKLEIK"}, "B2": {"name": "SB5: mouse anti-human SAS1B monoclonal antibody, IgG2b; VH SEQ ID NO:16, VL SEQ ID NO:18 (antibody, listed as Mus musculus, V domains shown)", "VH": "B1 VH", "VL": "B1 VL with T7I"}, "B3": {"name": "SB2: mouse anti-human SAS1B monoclonal antibody, IgG2b; VH SEQ ID NO:14, VL SEQ ID NO:15 (antibody, listed as Mus musculus, V domains shown)", "VH": "B1 VH with P24A, M37V, I51V, T59S, A97V", "VL": "B1 VL with I29L, L30V, K50N"}}, "test_system": "SAS1B", "assay": "Western blot of uterine cancer cell line (SNU539) extract", "assay_type": "binding, human", "settings": "SNU539 RIPA extract, 42 ug total protein per lane, mAbs at 3 ug/ml", "note": "Positions count from the first letter of the chain named. Values joined by “and” are separate entries in the source; they are usually repeats but may differ in a detail not shown here. Identical values can stand only once."}
{"molecule": "B1", "values": [{"measurement": "Band identified on western blot", "value": "~43", "unit": "kD"}]}
{"molecule": "B2", "values": [{"measurement": "Band identified on western blot", "value": "~43", "unit": "kD"}]}
{"molecule": "B3", "values": [{"measurement": "Band identified on western blot", "value": "~43 kD and ~52 kD and ~50 kD"}]}
